Data: US10183027B2, “Lanthanide toolbox for multi-modal, non-invasive tumor specific theranostic prodrugs” (priority 2016, dated 2019)

Key:
[1] = NMRD relaxivity profiles (fast-field-cycling relaxometer); assay type: physicochemical; conditions: 10 MHz, 25° C.
[2] = T1 relaxation / r1 relaxivity at 3T (Philips Achieva scanner); assay type: physicochemical

SMILES: O.O=C([O-])CN1CCN(CC(=O)[O-])CCN(Cc2cc(C#Cc3ccc(NC(=O)c4ccncc4)cc3)ccn2)CCN(CC(=O)[O-])CC1.[Gd+3] [GdL]
- r1, T1 relaxivity [1]: 23.1 mM⁻¹ s⁻¹

SMILES: O.O=[N+]([O-])[O-].[Gd+3].[NH3+][Pt-2]([NH3+])([Cl])[n+]1ccc(C(=O)Nc2ccc(C#Cc3ccnc(CN4CCN(CC(=O)[O-])CCN(CC(=O)[O-])CCN(CC(=O)[O-])CC4)c3)cc2)cc1 [PtGdL]
- r1, T1 relaxivity [1]: 29.4 mM⁻¹ s⁻¹
- R1 = 1/T1 ([2]; 1.07E−04 mol/L): 3.1 s⁻¹
- T1 average ([2]; 1.07E−04 mol/L): 324.5 ms
- T1 slice 1 ([2]; 1.07E−04 mol/L): 373 ms
- T1 slice 2 ([2]; 1.07E−04 mol/L): 276 ms
- R1 = 1/T1 ([2]; 1.07E−05 mol/L): 0.5 s⁻¹
- T1 average ([2]; 1.07E−05 mol/L): 1829.5 ms
- T1 slice 1 ([2]; 1.07E−05 mol/L): 1960 ms
- T1 slice 2 ([2]; 1.07E−05 mol/L): 1699 ms
- R1 = 1/T1 ([2]; 2.68E−05 mol/L): 0.9 s⁻¹
- T1 average ([2]; 2.68E−05 mol/L): 1170.5 ms
- T1 slice 1 ([2]; 2.68E−05 mol/L): 1231 ms
- T1 slice 2 ([2]; 2.68E−05 mol/L): 1110 ms
- R1 = 1/T1 ([2]; 5.36E−05 mol/L): 1.2 s⁻¹
- T1 average ([2]; 5.36E−05 mol/L): 864.5 ms
- T1 slice 1 ([2]; 5.36E−05 mol/L): 917 ms
- T1 slice 2 ([2]; 5.36E−05 mol/L): 812 ms
- R1 = 1/T1 ([2]; 5.36E−06 mol/L): 0.5 s⁻¹
- T1 average ([2]; 5.36E−06 mol/L): 2012.5 ms
- T1 slice 1 ([2]; 5.36E−06 mol/L): 2092 ms
- T1 slice 2 ([2]; 5.36E−06 mol/L): 1933 ms
- r1 relaxivity ([2]; aqueous solution, linear fit of R1 vs concentration): 24.4 mM⁻¹ s⁻¹
